Results as given in article doi:10.1101/742544.
No constants are given. Whether binding was seen depends on the method and setting. Binding seen in cells or lysates may run through a third protein. Some binding calls cover weakened binding; strength is not graded here. For some assays here: Where a sequence is shown, tags or fusion partners need not be part of it.

Amino acid sequences for entries named in this document (tags omitted). A change or cut given only in a name is not applied to a line headed by its entry. Residues count along the entry.
UniProt P01375, residues 77-233: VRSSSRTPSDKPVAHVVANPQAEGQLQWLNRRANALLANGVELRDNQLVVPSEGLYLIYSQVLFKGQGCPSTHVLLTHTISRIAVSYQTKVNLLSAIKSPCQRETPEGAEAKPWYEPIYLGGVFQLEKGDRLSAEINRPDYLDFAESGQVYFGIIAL
UniProt Q96EP0: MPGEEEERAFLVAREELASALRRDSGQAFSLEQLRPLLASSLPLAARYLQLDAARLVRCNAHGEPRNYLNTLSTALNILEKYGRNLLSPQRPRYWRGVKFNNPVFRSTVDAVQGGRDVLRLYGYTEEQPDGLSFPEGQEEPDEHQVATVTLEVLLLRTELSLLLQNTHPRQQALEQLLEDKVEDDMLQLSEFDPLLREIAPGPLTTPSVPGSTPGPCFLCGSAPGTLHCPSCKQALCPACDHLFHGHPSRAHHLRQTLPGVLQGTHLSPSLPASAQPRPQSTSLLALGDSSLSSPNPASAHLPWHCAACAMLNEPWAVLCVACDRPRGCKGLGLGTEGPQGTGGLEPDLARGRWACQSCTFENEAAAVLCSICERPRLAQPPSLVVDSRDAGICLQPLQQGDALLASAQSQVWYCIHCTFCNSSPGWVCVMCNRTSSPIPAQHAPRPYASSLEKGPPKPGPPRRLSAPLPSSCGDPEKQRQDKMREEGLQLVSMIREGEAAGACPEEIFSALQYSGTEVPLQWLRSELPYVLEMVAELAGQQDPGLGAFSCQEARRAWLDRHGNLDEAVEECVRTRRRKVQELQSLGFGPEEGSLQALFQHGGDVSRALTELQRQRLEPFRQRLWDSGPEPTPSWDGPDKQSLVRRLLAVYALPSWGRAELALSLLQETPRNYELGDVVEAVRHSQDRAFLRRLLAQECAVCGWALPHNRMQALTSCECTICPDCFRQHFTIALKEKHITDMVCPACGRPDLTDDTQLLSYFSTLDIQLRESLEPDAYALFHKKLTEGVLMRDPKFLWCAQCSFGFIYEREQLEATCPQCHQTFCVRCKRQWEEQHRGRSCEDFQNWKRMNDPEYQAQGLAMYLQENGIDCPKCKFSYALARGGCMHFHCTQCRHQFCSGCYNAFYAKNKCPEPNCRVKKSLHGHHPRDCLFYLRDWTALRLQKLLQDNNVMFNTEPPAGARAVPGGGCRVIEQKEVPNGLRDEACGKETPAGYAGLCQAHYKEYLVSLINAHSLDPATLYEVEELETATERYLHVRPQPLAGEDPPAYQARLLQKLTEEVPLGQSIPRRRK

T1: FADD (mouse, endogenous in MEFs) (mouse (endogenous in MEFs)) (UniProt Q61160)
T1 sequence: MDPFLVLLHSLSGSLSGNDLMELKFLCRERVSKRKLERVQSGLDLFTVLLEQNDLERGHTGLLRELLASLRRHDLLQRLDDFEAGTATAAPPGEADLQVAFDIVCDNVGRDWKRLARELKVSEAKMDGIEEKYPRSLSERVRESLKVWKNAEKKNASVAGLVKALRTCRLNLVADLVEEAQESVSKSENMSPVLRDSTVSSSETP

B1: SHARPIN (mouse, endogenous in MEFs) (protein, UniProt Q91WA6 1-380)
chain: MSPPAGGAAVAADPASPVVLLAVHAAVRPLGAGQDAEAQPRKLQLIADPERPGRFRLGLLGTEPGAVSLEWPLEAICYTVRGPNQHELQPPPGGPGTFSVHFLDPEEAQQWAALVRDATAEGQNGSGSPAPAPAPAMCPISPPCSSMAQIPKATQPEVDLPQSSGNFKKEELATRLSQAIAGGDEKAAAQVAAVLAQHHVALNVQLMEAWFPPGPIRLQVTVEDATSVLSSSSSAHVSLKIHPHCSIAALQDQVFSEFGFPPAVQRWVIGRCLCMPERSLASYGVSQDGDPAFLYLLSAPREVSGQSLQNSKMDRKLGLFPQSLGLPHDLQPSSSSLPSPSQPGWSCPSCTFINASNRPGCEMCSTQRPCAWDPLAAAST
B2: Flag-SHARPIN (human) (protein, UniProt Q9H0F6 1-387)
chain: MAPPAGGAAAAASDLGSAAVLLAVHAAVRPLGAGPDAEAQLRRLQLSADPERPGRFRLELLGAGPGAVNLEWPLESVSYTIRGPTQHELQPPPGGPGTLSLHFLNPQEAQRWAVLVRGATVEGQNGSKSNSPPALGPEACPVSLPSPPEASTLKGPPPEADLPRSPGNLTEREELAGSLARAIAGGDEKGAAQVAAVLAQHRVALSVQLQEACFPPGPIRLQVTLEDAASAASAASSAHVALQVHPHCTVAALQEQVFSELGFPPAVQRWVIGRCLCVPERSLASYGVRQDGDPAFLYLLSAPREAPATGPSPQHPQKMDGELGRLFPPSLGLPPGPQPAASSLPSPLQPSWSCPSCTFINAPDRPGCEMCSTQRPCTWDPLAAAST

Key:
Test in all cases: co-IP
[1] = target: T1, FADD (mouse, endogenous in MEFs) (mouse (endogenous in MEFs))
[2] = target: Recombinant human Flag-TNF (human) (UniProt P01375)
[3] = target: Myc-HOIP-K784R (human) (human) (UniProt Q96EP0)
[4] = target: Myc-HOIP-C885A (human, catalytic inactive mutant) (human) (UniProt Q96EP0)
[5] = target: Myc-HOIP wildtype (human) (human) (UniProt Q96EP0)

| Binder | binding [1] | binding [2] | binding [3] | binding [4] | binding [5] |
| --- | --- | --- | --- | --- | --- |
| B1 | binds | binds |  |  |  |
| B2 |  |  | binds | binds | binds |
